The record followed here is publication PMC2745413.

Chains of the proteins cited; added tags and fusions are not shown.
UniProt P35222: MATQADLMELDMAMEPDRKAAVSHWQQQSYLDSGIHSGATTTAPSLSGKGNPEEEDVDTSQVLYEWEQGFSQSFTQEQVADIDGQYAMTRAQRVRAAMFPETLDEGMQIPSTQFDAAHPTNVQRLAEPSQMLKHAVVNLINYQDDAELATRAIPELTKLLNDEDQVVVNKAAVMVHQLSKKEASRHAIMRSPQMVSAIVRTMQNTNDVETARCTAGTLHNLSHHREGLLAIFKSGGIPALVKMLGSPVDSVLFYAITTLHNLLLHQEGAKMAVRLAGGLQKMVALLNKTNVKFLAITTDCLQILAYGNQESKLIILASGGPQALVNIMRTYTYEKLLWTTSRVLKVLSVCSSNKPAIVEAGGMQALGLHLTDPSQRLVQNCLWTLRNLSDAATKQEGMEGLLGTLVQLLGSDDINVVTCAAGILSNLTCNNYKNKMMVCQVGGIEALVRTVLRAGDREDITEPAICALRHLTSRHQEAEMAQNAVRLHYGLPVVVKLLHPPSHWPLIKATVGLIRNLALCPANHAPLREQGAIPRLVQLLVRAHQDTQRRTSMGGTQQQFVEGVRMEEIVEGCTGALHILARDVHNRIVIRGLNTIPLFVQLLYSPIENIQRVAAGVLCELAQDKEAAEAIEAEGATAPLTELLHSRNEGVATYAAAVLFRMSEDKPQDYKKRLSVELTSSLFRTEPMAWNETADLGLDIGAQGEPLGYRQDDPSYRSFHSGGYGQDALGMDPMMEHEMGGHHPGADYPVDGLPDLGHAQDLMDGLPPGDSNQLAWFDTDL
UniProt P46940: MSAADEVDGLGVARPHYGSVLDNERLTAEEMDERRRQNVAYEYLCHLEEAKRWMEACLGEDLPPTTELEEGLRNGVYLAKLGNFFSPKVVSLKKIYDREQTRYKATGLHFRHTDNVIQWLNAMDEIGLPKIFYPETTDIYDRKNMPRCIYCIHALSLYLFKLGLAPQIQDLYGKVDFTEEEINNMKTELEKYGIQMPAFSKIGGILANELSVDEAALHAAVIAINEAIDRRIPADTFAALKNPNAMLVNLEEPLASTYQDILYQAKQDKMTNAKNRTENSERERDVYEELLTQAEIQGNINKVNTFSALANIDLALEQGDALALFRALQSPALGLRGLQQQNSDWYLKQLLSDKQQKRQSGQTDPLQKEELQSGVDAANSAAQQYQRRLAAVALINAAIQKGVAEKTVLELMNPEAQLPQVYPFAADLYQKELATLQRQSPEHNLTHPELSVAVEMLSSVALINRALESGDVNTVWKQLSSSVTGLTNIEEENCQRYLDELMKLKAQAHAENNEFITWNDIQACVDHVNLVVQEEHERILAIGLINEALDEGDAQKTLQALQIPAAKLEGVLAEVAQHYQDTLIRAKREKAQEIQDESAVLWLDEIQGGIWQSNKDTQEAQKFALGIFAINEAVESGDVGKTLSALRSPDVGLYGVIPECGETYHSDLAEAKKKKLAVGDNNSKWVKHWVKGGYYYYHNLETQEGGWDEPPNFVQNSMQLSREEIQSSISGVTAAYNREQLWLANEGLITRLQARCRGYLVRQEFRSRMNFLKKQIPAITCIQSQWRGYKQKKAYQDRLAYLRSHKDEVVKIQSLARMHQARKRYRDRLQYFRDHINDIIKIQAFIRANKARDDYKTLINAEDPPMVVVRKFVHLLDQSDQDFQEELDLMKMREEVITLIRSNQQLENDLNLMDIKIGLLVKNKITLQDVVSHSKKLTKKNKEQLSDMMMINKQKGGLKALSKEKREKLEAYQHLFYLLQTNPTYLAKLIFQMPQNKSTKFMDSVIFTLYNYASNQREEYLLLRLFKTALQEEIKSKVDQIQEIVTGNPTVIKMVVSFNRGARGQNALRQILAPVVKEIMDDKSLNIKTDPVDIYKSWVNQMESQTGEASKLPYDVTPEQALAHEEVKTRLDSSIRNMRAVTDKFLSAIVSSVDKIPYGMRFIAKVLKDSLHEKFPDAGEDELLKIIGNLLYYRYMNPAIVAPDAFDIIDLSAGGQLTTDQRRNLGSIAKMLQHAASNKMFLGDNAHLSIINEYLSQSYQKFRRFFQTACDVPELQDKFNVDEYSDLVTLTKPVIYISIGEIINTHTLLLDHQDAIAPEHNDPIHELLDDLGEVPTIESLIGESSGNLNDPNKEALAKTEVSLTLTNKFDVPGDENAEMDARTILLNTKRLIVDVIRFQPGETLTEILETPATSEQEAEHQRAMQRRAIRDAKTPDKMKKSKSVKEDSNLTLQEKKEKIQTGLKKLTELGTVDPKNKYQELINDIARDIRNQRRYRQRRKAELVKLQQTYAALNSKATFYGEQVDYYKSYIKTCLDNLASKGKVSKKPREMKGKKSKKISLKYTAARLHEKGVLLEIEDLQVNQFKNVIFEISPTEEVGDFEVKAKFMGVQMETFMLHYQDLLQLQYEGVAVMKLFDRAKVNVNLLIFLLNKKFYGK

Test [1] has as its target β-catenin (endogenous) (human (endogenous in PANC-1)) (UniProt P35222). The test is described as follows: co-IP; 300 μg of the particulate, membrane-containing (P100) fraction of PANC-1 clones expressing EGFP, EGFP-Rac1(V12) or EGFP-Rac1(N17); IQGAP1 or β-catenin precipitated; Western blot. A general note: In western blotting, separated proteins are transferred to a membrane and probed.

Test [2] concerns the target GST-β-catenin (UniProt P35222). The test is described as follows: pull-down; 20-40 μg GST-β-catenin immobilised to glutathione sepharose, 500 μg RIPA lysate of EGFP-Rac1(N17)-expressing PANC-1 cells, 60 min at 4°C; Western blot for IQGAP1; only the target purified.
The target in test [3] is β-catenin (endogenous) (human (endogenous in PANC-1)) (UniProt P35222). Description: condition: only particulate fraction of EGFP-Rac1(V12)-expressing cells; co-IP; 300 μg of the particulate (P100) fraction of EGFP-Rac1(V12)-expressing PANC-1 cells, for the pair IQGAP1 and β-catenin; IQGAP1 or β-catenin precipitated; Western blot.
Test [4] concerns the target GST-β-catenin (UniProt P35222). The test is described as follows: condition: only lysate of EGFP-Rac1(V12)-expressing cells; pull-down; 20-40 μg GST-β-catenin immobilised to glutathione sepharose, 500 μg RIPA lysate of EGFP-Rac1(V12)-expressing PANC-1 cells, 60 min at 4°C; Western blot for IQGAP1; only the target purified.
The target in test [5] is IQGAP1 (human (endogenous in PANC-1)) (UniProt P46940). The test is described as follows: co-IP; as a2, total lysate of EGFP-Rac1(V12)-expressing PANC-1 cells; IQGAP1 precipitated, β-catenin blotted.
Test [6] has the same target. The test is described as follows: co-IP; 300 μg of the soluble (S100) fraction of PANC-1 clones expressing EGFP, EGFP-Rac1(V12) or EGFP-Rac1(N17); IQGAP1 or β-catenin precipitated; Western blot.
The target is the same in test [7]. Description: co-IP; 300 μg of the particulate (P100) fraction of EGFP-Rac1(V12)-expressing PANC-1 cells, for the pair IQGAP1 and β-catenin; IQGAP1 or β-catenin precipitated; Western blot.
Test [8] shares this target. Description: co-IP; 300 μg of the particulate, membrane-containing (P100) fraction of PANC-1 clones expressing EGFP, EGFP-Rac1(V12) or EGFP-Rac1(N17); IQGAP1 or β-catenin precipitated; Western blot.
For test [9] the target is unchanged. Description: co-IP; μMACS protein isolation system, NOP lysate (50 mM Tris/HCl pH 7.2, 1% Triton X-100, 1% NP-40, 150 mM NaCl) of PANC-1 clones stably expressing EGFP, EGFP-Rac1(V12) or EGFP-Rac1(N17); also PANC-1 cells treated with PDGF AB or NSC23766; Western blot.

These are yes or no findings as the source states them, for the method shown. In cells and extracts the contact can be indirect. Some entries that bind do so weakly or less than the wild type.

For IQGAP1 (from UniProt P46940 1-1657), the binding entry in test [1] was “binds”; in [2] it was “binds”; in test [3], “no binding”; in test [4] it was “no binding”.

For “β-catenin (endogenous) (from UniProt P35222 1-781)”, the binding entry in [5] is “binds weakly”; in test [6] it was “no binding (condition: in the soluble (S100) fraction)”; in [7], “binds weakly”; in [8], “binds”; in test [9] it was “binds”.
